Where a chain is given by its changes, count along the chain named. No constants are given. Whether binding was seen depends on the method and setting. Some binding calls cover weakened binding; strength is not graded here. For some assays here: Where a sequence is shown, tags or fusion partners need not be part of it.
B1: Clone C variant 18 VNAR-hFc (Fc fusion, not shown: a dimerising Fc or GST)
chain: ARVDQTPQTITKETGESLTINCVLRDSNCALSSTYWYRKKSGSTNEENISKGGRYVETVNSGSKSFSLRINDLTVEDSGTYRCNVVQYPQYPNYFWCDVYGDGTAVTVN
B2: Clone C variant 13 VNAR-hFc (Fc fusion, not shown: a dimerising Fc or GST)
chain: B1 chain with Y91Q, P92D
B3: Clone H VNAR-hFc fusion (Fc fusion, not shown: a dimerising Fc or GST)
chain: ARVDQTPQTITKETGESLTINCVLRDSNCELSSTYWYRKKSGSTNEESISKGGRYVETVNSGSKSFSLRINDLVVEDSGTYRCNVQQFPSSSNGRYWCDVYGGGTAVTVNA
B4: Clone H variant 1 VNAR-hFc (Fc fusion, not shown: a dimerising Fc or GST)
chain: B3 chain with Q86V, F88W
B5: Clone H variant 10 VNAR-hFc (Fc fusion, not shown: a dimerising Fc or GST)
chain: B3 chain with S91W, S92F
B6: Clone C VNAR-hFc fusion (Fc fusion, not shown: a dimerising Fc or GST)
chain: B1 chain with Q90S, P92N

The chains behind the UniProt entries cited, without tags or fusion partners. Where a name states a change or a piece, a line headed by the entry shows the natural chain unless it says otherwise. A line that says so, or that is headed by a name, gives the form on record, which may keep a tag or linker. Residues count along the entry.
purified WT mTfR-1 (ELISA coat) (Q62351, residues 89-763): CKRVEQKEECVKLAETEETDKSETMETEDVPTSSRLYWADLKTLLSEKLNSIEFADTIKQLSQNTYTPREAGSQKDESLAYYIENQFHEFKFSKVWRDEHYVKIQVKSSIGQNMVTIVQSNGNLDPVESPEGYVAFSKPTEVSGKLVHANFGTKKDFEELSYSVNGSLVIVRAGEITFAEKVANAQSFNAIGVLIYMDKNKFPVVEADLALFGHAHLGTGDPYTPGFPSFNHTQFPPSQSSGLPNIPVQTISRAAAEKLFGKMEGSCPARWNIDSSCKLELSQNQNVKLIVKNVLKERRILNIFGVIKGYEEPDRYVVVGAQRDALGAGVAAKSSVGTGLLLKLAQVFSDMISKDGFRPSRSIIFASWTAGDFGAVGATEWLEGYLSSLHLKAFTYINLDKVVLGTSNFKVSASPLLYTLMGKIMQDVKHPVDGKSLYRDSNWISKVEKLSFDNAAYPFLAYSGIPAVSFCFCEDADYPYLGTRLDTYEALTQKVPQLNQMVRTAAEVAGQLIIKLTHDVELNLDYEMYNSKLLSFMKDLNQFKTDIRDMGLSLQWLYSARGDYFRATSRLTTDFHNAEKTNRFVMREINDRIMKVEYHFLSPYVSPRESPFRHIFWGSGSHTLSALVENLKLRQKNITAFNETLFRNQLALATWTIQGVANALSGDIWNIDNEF
purified mTfR1 mutant M1 (AGS) (Q62351, form named): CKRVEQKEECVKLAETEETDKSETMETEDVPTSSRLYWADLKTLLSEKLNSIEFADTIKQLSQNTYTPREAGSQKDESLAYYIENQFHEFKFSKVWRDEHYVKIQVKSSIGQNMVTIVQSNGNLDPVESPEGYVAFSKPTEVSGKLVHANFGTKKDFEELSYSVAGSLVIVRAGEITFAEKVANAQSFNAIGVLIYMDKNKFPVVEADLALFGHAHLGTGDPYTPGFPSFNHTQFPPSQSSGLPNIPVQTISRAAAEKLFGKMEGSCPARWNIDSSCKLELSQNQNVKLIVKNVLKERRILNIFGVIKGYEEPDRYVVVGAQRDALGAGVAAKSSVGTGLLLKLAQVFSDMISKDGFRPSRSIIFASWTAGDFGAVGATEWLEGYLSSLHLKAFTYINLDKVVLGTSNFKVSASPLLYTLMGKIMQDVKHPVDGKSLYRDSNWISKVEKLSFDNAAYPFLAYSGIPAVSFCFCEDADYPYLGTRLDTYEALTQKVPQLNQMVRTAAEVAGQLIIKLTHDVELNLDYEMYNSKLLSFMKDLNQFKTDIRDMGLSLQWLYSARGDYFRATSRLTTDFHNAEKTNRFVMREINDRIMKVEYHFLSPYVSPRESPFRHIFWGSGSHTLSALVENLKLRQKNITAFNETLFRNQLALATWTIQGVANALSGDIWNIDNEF
purified mTfR1 mutant M2 (NAS) (Q62351, form named): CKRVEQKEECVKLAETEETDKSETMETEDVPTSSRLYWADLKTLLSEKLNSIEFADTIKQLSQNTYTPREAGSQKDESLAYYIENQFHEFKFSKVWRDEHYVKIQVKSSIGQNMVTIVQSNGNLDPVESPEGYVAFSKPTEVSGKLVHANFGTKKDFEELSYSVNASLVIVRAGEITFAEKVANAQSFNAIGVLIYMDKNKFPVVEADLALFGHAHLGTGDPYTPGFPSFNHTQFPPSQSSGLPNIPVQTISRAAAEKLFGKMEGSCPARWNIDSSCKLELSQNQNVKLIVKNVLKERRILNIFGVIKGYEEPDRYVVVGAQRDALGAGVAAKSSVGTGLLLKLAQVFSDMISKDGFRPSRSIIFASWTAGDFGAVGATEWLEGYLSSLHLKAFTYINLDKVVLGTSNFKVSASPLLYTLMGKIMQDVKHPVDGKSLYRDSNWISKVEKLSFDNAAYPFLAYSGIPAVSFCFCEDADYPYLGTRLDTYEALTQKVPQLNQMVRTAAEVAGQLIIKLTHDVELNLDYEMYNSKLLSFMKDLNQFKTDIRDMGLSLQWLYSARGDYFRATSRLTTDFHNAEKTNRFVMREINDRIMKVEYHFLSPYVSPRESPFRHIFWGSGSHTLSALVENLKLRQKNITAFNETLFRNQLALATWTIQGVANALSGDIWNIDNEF
purified mTfR1 mutant M3 (NGA) (Q62351, form named): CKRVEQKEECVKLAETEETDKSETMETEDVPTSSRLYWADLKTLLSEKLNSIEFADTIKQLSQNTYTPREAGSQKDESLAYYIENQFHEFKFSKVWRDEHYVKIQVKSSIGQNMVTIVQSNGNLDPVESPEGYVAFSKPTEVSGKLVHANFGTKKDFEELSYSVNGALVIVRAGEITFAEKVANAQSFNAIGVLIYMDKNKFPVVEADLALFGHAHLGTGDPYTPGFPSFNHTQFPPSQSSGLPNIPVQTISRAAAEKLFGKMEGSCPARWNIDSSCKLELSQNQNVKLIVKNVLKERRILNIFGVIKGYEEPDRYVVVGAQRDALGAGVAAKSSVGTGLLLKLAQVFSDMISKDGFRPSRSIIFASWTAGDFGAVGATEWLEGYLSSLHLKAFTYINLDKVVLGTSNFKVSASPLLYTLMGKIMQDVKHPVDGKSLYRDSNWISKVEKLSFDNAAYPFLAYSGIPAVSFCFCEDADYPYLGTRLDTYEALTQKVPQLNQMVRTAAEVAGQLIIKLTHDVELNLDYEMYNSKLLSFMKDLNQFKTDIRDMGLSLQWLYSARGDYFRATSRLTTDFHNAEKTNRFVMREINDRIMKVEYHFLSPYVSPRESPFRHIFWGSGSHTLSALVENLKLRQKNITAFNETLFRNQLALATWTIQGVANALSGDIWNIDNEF

The binders below were run against purified mTfR1 mutant M1 (AGS) (mouse) (UniProt Q62351) (assay: ELISA, coated purified mTfR-1).

binding, binds:
B1
B2
B3
B4
B5

What follows are binders tested against purified mTfR1 mutant M2 (NAS) (mouse) (UniProt Q62351) (assay: ELISA, coated purified mTfR-1).

binding, binds:
B1
B2
B4
B5

The binders below were run against purified mTfR1 mutant M3 (NGA) (mouse) (UniProt Q62351) (assay: ELISA, coated purified mTfR-1).

binding, binds:
B6
B1
B2
B3
B4
B5

The binders below were run against purified WT mTfR-1 (ELISA coat) (mouse) (UniProt Q62351) (assay: ELISA, plate coated with purified WT mTfR-1, serial dilution of the VNAR-hFc; y axis Norm. Vmax OD at 650nm).

binding, binds:
B1
B2
B3
B4
B5

These binders were tested against purified mTfR1 mutant M3 (NGA) (mouse) (UniProt Q62351) (assay: ELISA, plate coated with purified mTfR-1 mutant M3 (NGA), serial dilution of the binder; y axis Norm. Vmax OD at 650nm).

binding, binds:
B6

The binders below were run against purified mTfR1 mutant M1 (AGS) (mouse) (UniProt Q62351) (assay: ELISA, plate coated with purified mTfR-1 mutant M1 (AGS), serial dilution of the VNAR-hFc; y axis Norm. Vmax OD at 650nm).

binding, binds:
B1
B2
B3
B4
B5

Each binder was assayed against purified mTfR1 mutant M2 (NAS) (mouse) (UniProt Q62351) (assay: ELISA, plate coated with purified mTfR-1 mutant M2 (NAS), serial dilution of the VNAR-hFc; y axis Norm. Vmax OD at 650nm).

binding, binds:
B1
B2
B4
B5

What follows are binders tested against purified mTfR1 mutant M3 (NGA) (mouse) (UniProt Q62351) (assay: ELISA, plate coated with purified mTfR-1 mutant M3 (NGA), serial dilution of the VNAR-hFc; y axis Norm. Vmax OD at 650nm).

binding, binds:
B1
B2
B3
B4
B5

— patent US20210403591A1
